Test results as given in patent US7070942B2, “Method of inducing or enhancing chondrogenesis with extracellular matrix containing GDF-5” (DePuy Spine, Inc., priority 1998, dated 2006).
At least one compound was matched to its structure with a doubt left.

System: GDF-5/type I collagen-induced chondrogenesis
Experiment: Inhibitors of intracellular signaling mediators on GDF-5/type I collagen-induced chondrogenesis
Assay type: cell-based
Settings: GDF-5 in the context of type I collagen
Excerpt: The molecular signaling mechanism by which GDF-5 induces chondrogenesis in the context of type I collagen was also examined using well-characterized inhibitors of intracellular signaling mediators. […] The known inhibitory effect of rapamycin on activation of p70S6 kinase indicate that GDF-5/type I collagen-induced chondrogenesis is mediated through p70S6 kinase activation.

## CO[C@H]1C[C@@H]2CC[C@@H](C)[C@@](O)(O2)C(=O)C(=O)N2CCCC[C@H]2C(=O)O[C@H]([C@H](C)C[C@@H]2CC[C@@H](O)[C@H](OC)C2)CC(=O)[C@H](C)/C=C(\C)[C@@H](O)[C@@H](OC)C(=O)[C@H](C)C[C@H](C)/C=C/C=C/C=C/1C [rapamycin]
  inhibition of ligand-dependent chondrogenesis: completely inhibited
